Data published in publication PMC3968096.
Construct, isoform or probe ends are uncertain for at least one entry. Where cells or extracts were used, other partners may take part. For part of these data: Negatives hold for the conditions tested.

Chains of the proteins cited; added tags and fusions are not shown. Chains listed by the source or under a name are the forms on record and can include a tag or linker.
VEGF110 yeast-displayed del137-191 (human), one chain, as listed by the source: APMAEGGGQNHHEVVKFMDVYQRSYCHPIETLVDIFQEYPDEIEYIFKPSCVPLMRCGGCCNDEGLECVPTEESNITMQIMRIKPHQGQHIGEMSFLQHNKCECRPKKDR
VEGF165 yeast-displayed (human), one chain, as listed by the source: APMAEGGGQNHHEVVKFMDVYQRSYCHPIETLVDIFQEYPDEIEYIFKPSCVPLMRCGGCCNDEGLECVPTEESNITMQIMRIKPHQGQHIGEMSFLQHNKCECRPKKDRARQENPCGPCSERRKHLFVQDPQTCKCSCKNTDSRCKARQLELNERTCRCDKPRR

Experiments:
[1] = test system: VEGF110 yeast-displayed del137-191 (human); assay: flow cytometry, yeast display; details: 10 mM HEPES pH 7.9, 125 mM NaCl, 25 mM KCl, 1 mM MgCl2; F-EMSA at room temperature for 2 h, 5% PAGE at 4 C; flow cytometry in the same buffer; protein on the cell surface; residues 27-136; protein details: Aga2 fusion, HA, c-myc; label: 5' fluorescein (F-EMSA), 5' biotin (flow); folded or branched DNA
[2] = test system: VEGF165 yeast-displayed (human); assay: flow cytometry, yeast display; details: Kd in close agreement with F-EMSA; 10 mM HEPES pH 7.9, 125 mM NaCl, 25 mM KCl, 1 mM MgCl2; F-EMSA at room temperature for 2 h, 5% PAGE at 4 C; flow cytometry in the same buffer; protein on the cell surface; residues 27-191; protein details: Aga2 fusion, HA, c-myc; label: 5' fluorescein (F-EMSA), 5' biotin (flow); folded or branched DNA
[3] = test system: VEGF165 yeast-displayed (human); assay: competition, flow cytometry; details: 100 nM heparin post-incubation, not reduced; 10 mM HEPES pH 7.9, 125 mM NaCl, 25 mM KCl, 1 mM MgCl2; F-EMSA at room temperature for 2 h, 5% PAGE at 4 C; flow cytometry in the same buffer; protein on the cell surface; residues 27-191; protein details: Aga2 fusion, HA, c-myc; label: 5' fluorescein (F-EMSA), 5' biotin (flow); folded or branched DNA

Row | Sequence | binding result [1] | binding result [2] | binding result [3]
1 | TCTAGCCCACTGCATAGAGGTAGCTACCGGTG [hVap1_SST] | no binding | binds | binds
2 | TCTAGCCCACTGCATAGAGGTAGCCACGTATGTTCGTGGCTACCGGTG [hVap1_Stem] | no binding | binds | binds
3 | TCTAGCCCACTGCATAGAGGTAGCCACGTATGTGGGTGTTACCCATTCGTAGCTACCGGTG [hVap1_T1979] | no binding | binds | binds
